In data set [1] the target is NR4A1 (endogenous) (Mus musculus) (UniProt P12813). The data set can be described thus: pull-down. Conditions: pull-down: 50 pmol probe, 250 ug extract, 4 C 3 h, protein in an extract.
For data set [2], the target named is His-GST-NR4A1 (Mus musculus) (UniProt P12813). The data set can be described thus: EMSA. Conditions: glutaraldehyde 0.2% added after binding; 10 mM HEPES pH 7.6, 50 mM KCl, 1 mM EDTA, 0.05% Triton X-100, 5% glycerol, 1 mM DTT, 40 U/ml RNasin; REMSA: 2 nM probe, room temperature 30 min; recombinant protein; protein details: His-GST; label: 5' biotin.

The chains behind the UniProt entries cited, without tags or fusion partners.
UniProt P12813, whole entry: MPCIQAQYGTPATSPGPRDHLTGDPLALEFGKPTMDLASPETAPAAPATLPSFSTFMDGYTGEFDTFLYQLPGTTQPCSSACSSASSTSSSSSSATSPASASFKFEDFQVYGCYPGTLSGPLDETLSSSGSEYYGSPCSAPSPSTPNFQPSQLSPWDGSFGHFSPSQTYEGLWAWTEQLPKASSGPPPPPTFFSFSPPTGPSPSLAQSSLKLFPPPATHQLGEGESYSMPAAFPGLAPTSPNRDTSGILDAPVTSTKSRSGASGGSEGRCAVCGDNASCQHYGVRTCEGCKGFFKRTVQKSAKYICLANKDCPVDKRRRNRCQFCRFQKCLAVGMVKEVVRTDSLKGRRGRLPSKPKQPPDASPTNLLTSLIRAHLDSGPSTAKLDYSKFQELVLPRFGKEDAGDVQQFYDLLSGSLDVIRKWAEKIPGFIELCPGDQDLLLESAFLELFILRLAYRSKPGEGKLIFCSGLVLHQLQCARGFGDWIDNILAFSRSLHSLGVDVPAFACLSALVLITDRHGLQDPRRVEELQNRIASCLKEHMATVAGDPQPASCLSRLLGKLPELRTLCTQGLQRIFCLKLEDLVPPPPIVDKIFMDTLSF

Consider four sequences from paper PMC10365314, “Noncanonical contribution of microglial transcription factor NR4A1 to post-stroke recovery through TNF mRNA destabilization”.

For at least one entry, the source does not settle the construct or the ends of the probe. The comparison behind a weaker result is the experiment's own reference, which may not be listed here. For some assays here: At least one result comes from cells or an extract, where the contact may be indirect.

For the sequence “CGUCUCAGACACAGACAGCU [AGACA probe, unmethylated]”, the binding result in data set [1] (label: 5' biotin) is “binds more weakly”.

Turning to “CGUCUCGGACUCGGACUGCU [GGACU probe, unmethylated]”, the binding result in data set [2] and in data set [1] (label: 5' biotin) was “binds more weakly” in each case.

With CGUCUCAGACACAGACAGCU [AGACA probe, m6A], the binding result in data set [1] (m6A at positions 9 and 15 (as printed: CGUCUCAG(m6A)CACAG(m6A)CAGCU), label: 5' …) is given as “binds”.

As to CGUCUCGGACUCGGACUGCU [GGACU probe, m6A], the binding result in data set [1] (m6A at positions 9 and 15 (as printed: CGUCUCGG(m6A)CUCGG(m6A)CUGCU), label: 5' …) was “binds”.
